Results are given in words; binding and its absence hold for the method and conditions named. Some binding calls cover weakened binding; strength is not graded here. For part of these data: Where a sequence is shown, tags or fusion partners need not be part of it.

Sequences of proteins named here, by UniProt entry; tags and fusion partners are left off.
UniProt Q9NNX6: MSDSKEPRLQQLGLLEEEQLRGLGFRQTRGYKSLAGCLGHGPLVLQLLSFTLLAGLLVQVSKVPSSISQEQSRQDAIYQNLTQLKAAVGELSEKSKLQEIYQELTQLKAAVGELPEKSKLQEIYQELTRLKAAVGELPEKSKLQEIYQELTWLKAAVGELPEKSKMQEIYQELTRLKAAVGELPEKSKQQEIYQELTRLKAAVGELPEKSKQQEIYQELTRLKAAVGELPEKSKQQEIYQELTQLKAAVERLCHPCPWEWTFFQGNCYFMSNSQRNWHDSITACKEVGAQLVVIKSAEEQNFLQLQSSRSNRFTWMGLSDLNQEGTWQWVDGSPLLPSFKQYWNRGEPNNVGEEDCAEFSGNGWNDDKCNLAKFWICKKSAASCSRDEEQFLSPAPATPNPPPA

Assay [1] concerns the target DC-specific ICAM-grabbing non-integrin (DC-SIGN; CD209) (human) (UniProt Q9NNX6). As to the kind of experiment: fluorescent beads adhesion assay, flow cytometry, K-SIGN cells. (In flow cytometry, cells or beads pass a laser one at a time.)
Assay [2] shares this target. The assay is described as follows: adhesion of monocyte-derived DC; assay not described.
Assay [3] has as its target T1, Activated Leukocyte Cell Adhesion Molecule ALCAM (UniProt Q13740).
T1 sequence (looked up): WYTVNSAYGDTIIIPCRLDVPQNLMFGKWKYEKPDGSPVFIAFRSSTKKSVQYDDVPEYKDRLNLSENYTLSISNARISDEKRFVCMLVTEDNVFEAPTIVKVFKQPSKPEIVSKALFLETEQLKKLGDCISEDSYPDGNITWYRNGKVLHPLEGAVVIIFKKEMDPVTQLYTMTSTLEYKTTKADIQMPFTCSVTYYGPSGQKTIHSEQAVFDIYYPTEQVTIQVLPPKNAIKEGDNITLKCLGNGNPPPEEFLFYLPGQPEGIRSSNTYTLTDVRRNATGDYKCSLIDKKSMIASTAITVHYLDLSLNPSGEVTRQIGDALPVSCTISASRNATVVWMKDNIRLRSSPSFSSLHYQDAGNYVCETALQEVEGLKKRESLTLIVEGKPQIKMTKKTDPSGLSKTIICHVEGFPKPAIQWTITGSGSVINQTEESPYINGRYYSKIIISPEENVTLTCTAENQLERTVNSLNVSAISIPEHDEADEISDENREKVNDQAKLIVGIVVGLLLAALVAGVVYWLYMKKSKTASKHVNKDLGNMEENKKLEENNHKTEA
The assay is described as follows: fluorescent beads adhesion assay, flow cytometry, K-ALCAM cells.

B1: ICAM-3-Fc (Fc fusion, UniProt P32942 30-485, looked up)
chain: QEFLLRVEPQNPVLSAGGSLFVNCSTDCPSSEKIALETSLSKELVASGMGWAAFNLSNVTGNSRILCSVYCNGSQITGSSNITVYRLPERVELAPLPPWQPVGQNFTLRCQVEDGSPRTSLTVVLLRWEEELSRQPAVEEPAEVTATVLASRDDHGAPFSCRTELDMQPQGLGLFVNTSAPRQLRTFVLPVTPPRLVAPRFLEVETSWPVDCTLDGLFPASEAQVYLALGDQMLNATVMNHGDTLTATATATARADQEGAREIVCNVTLGGERREARENLTVFSFLGPIVNLSEPTAHEGSTVTVSCMAGARVQVTLDGVPAAAPGQPAQLQLNATESDDGRSFFCSATLEVDGEFLHRNSSVQLRVLYGPKIDRATCPQHLKWKDKTRHVLQCQARGNPYPELRCLKEGSSREVPVGIPFFVNVTHNGTYQCQASSSRGKYTLVVVMDIEAGSSH
notes: Coated on carboxylate-modified TransFluorSpheres; also called ICAM-3-Fc coated beads; ICAM-3 fluorescent beads; not shown: Fc part
As to B1, in assay [1], the binding result is listed as “binds”.

B2: ICAM-3 (ligand, UniProt P32942 30-485, looked up)
chain: B1 chain
For the molecule B2, in assay [2], the binding result is listed as “binds”.

B3: ALCAM-Fc (Fc fusion, UniProt Q13740 28-527, looked up, not shown: a dimerising Fc or GST)
chain: WYTVNSAYGDTIIIPCRLDVPQNLMFGKWKYEKPDGSPVFIAFRSSTKKSVQYDDVPEYKDRLNLSENYTLSISNARISDEKRFVCMLVTEDNVFEAPTIVKVFKQPSKPEIVSKALFLETEQLKKLGDCISEDSYPDGNITWYRNGKVLHPLEGAVVIIFKKEMDPVTQLYTMTSTLEYKTTKADIQMPFTCSVTYYGPSGQKTIHSEQAVFDIYYPTEQVTIQVLPPKNAIKEGDNITLKCLGNGNPPPEEFLFYLPGQPEGIRSSNTYTLTDVRRNATGDYKCSLIDKKSMIASTAITVHYLDLSLNPSGEVTRQIGDALPVSCTISASRNATVVWMKDNIRLRSSPSFSSLHYQDAGNYVCETALQEVEGLKKRESLTLIVEGKPQIKMTKKTDPSGLSKTIICHVEGFPKPAIQWTITGSGSVINQTEESPYINGRYYSKIIISPEENVTLTCTAENQLERTVNSLNVSAISIPEHDEADEISDENREKVNDQAK
With B3, the binding result in assay [3] is “binds”.

(Values after patent US7541032B2, “Antigen uptake receptor for Candida albicans on dendritic cells” (priority 2002, dated 2009).)
